Here are results for two compounds from patent US20050203013A1, “Methods for inhibiting vascular permeability” (priority 2002, published 2005).

This data set relates to A2058 melanoma and U87 glioblastoma tumors. Put plainly: Tumor vessel density by immunohistochemical staining (SMA, PCNA, CD31). Particulars: for vessel density (SMA, PCNA or CD31 staining): A2058 melanoma or U87 glioblastoma, 3 days (TNP-470 forms) or 5 days (angiostatin); for microvessel density (CD31 staining): U87 glioblastoma, ± standard error. It counts as in vivo, mice.

With `CO[C@@H]1[C@H](OC(=O)NC(=O)CCl)CC[C@]2(CO2)[C@H]1[C@@]1(C)O[C@@H]1CC=C(C)C` [TNP-470], the “vessel density (SMA, PCNA or CD31 staining)” value is “no significant difference” and the “microvessel density (CD31 staining)” value is recorded as 108±24 microvessels per square mm.

In the case of angiostatin, the “vessel density (SMA, PCNA or CD31 staining)” value is reported as “no significant difference” and the “microvessel density (CD31 staining)” value was 105±15 microvessels per square mm.
